Paper PMC11996869
These are yes or no findings as the source states them, for the method shown. For some of these results: In cells and extracts the contact can be indirect. Some entries that bind do so weakly or less than the wild type. For some of these results: Sequences can lack the tags named with a protein. One block for each molecule: values may come before it.

Protein sequences, listed by entry. Tags and fused reporters are not part of them.
UniProt Q9UM07: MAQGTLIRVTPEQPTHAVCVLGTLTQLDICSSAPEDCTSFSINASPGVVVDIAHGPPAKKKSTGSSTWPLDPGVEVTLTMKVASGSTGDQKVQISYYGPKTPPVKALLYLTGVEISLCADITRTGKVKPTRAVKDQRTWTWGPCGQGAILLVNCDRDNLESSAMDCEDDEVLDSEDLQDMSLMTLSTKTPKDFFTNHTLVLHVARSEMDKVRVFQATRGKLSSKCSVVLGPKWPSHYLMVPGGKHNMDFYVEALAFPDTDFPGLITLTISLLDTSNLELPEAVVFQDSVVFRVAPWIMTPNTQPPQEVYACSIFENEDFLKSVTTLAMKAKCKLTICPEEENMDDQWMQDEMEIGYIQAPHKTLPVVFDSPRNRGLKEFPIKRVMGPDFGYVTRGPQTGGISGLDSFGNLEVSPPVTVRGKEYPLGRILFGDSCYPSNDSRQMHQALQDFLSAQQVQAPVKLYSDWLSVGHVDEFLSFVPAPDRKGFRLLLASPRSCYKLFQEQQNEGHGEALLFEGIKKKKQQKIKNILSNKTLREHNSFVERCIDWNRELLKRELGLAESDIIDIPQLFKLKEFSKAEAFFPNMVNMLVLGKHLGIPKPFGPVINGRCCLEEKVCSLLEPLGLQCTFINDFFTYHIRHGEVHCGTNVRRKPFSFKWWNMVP

What was measured:
[1] = target: T1, HA-tagged TGM2 (transglutaminase 2) (UniProt P21980); test: co-IP; exogenous HA-tagged TGM2 and Flag-tagged PAD4 in HEK-293T cells; IP of Flag-tagged PAD4 (6H) and of HA-tagged TGM2 (6I)
T1 sequence: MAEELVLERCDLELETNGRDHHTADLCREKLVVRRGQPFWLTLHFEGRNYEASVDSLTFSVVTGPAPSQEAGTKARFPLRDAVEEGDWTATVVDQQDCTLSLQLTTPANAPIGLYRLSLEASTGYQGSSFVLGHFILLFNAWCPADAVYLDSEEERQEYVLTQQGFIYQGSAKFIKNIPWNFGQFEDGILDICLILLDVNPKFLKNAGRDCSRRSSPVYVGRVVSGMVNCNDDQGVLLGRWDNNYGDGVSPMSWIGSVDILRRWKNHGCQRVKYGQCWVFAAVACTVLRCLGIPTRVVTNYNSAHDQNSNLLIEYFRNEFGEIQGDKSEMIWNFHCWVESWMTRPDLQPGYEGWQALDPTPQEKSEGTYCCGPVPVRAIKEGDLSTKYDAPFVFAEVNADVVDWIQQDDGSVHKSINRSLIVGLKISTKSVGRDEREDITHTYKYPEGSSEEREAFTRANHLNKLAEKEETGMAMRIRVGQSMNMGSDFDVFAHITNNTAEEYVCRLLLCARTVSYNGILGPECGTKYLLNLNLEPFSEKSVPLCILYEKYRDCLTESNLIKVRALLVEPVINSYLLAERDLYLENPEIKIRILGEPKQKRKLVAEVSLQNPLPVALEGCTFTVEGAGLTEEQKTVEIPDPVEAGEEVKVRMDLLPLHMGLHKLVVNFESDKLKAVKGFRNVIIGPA

purified TGM2 protein = target: T2, purified TGM2 protein (UniProt P21980); test: pull-down; purified PAD4 and TGM2 proteins, in vitro; both purified
T2 sequence: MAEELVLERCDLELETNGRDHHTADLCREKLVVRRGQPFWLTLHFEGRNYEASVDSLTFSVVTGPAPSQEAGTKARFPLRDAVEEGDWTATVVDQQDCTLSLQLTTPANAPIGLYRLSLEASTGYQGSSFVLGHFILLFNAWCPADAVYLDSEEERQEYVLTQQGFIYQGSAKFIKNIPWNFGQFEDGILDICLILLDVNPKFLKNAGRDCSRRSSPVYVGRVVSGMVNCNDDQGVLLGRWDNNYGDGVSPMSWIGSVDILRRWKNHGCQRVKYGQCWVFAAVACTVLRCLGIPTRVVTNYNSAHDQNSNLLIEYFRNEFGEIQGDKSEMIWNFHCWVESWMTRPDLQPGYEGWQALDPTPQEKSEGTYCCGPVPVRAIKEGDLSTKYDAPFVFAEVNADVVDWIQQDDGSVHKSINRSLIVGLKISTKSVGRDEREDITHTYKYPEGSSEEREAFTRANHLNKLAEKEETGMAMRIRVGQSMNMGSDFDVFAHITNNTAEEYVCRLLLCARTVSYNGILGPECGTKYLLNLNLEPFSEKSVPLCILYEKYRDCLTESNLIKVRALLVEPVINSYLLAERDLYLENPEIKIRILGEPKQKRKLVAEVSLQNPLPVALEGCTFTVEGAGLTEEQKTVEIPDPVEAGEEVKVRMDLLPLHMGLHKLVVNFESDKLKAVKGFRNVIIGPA

[2] = target: T3, endogenous TGM2 (human (endogenous in HL-60)) (UniProt P21980); test: co-IP; endogenous PAD4 and TGM2 in HL-60 cells
T3 sequence: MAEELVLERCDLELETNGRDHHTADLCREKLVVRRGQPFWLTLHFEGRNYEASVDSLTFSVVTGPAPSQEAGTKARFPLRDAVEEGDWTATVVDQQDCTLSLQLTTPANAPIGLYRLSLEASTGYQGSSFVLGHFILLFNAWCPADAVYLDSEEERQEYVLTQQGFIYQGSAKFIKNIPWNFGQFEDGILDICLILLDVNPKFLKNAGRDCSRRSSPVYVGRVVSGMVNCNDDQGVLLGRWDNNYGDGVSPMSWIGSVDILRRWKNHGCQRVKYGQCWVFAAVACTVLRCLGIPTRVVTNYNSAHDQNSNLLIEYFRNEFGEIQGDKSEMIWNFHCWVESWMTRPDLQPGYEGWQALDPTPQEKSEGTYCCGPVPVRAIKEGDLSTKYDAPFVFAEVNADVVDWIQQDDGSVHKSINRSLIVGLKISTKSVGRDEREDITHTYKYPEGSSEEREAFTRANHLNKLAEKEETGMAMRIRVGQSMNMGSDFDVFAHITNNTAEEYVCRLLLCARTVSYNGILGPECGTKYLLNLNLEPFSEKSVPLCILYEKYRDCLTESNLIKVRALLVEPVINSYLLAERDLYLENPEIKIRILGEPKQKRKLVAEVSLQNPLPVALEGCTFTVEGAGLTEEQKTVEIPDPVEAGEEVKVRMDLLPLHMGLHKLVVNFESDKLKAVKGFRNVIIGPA

[3] = target: Flag-tagged PAD4 (peptidylarginine deiminase 4) (UniProt Q9UM07); test: co-IP; exogenous HA-tagged TGM2 and Flag-tagged PAD4 in HEK-293T cells; IP of Flag-tagged PAD4 (6H) and of HA-tagged TGM2 (6I)

binding [1]: binds
Molecule: Flag-tagged PAD4 (peptidylarginine deiminase 4) (from UniProt Q9UM07 1-663) (enzyme)

binding (purified TGM2 protein): binds
Molecule: purified PAD4 protein (from UniProt Q9UM07 1-663) (enzyme)

binding [2]: binds
Molecule: endogenous PAD4 (from UniProt Q9UM07 1-663) (enzyme)

binding [3]: binds
B1: HA-tagged TGM2 (transglutaminase 2) (enzyme, UniProt P21980 1-687)
chain: MAEELVLERCDLELETNGRDHHTADLCREKLVVRRGQPFWLTLHFEGRNYEASVDSLTFSVVTGPAPSQEAGTKARFPLRDAVEEGDWTATVVDQQDCTLSLQLTTPANAPIGLYRLSLEASTGYQGSSFVLGHFILLFNAWCPADAVYLDSEEERQEYVLTQQGFIYQGSAKFIKNIPWNFGQFEDGILDICLILLDVNPKFLKNAGRDCSRRSSPVYVGRVVSGMVNCNDDQGVLLGRWDNNYGDGVSPMSWIGSVDILRRWKNHGCQRVKYGQCWVFAAVACTVLRCLGIPTRVVTNYNSAHDQNSNLLIEYFRNEFGEIQGDKSEMIWNFHCWVESWMTRPDLQPGYEGWQALDPTPQEKSEGTYCCGPVPVRAIKEGDLSTKYDAPFVFAEVNADVVDWIQQDDGSVHKSINRSLIVGLKISTKSVGRDEREDITHTYKYPEGSSEEREAFTRANHLNKLAEKEETGMAMRIRVGQSMNMGSDFDVFAHITNNTAEEYVCRLLLCARTVSYNGILGPECGTKYLLNLNLEPFSEKSVPLCILYEKYRDCLTESNLIKVRALLVEPVINSYLLAERDLYLENPEIKIRILGEPKQKRKLVAEVSLQNPLPVALEGCTFTVEGAGLTEEQKTVEIPDPVEAGEEVKVRMDLLPLHMGLHKLVVNFESDKLKAVKGFRNVIIGPA
